{"source": "patent US20040194155A1", "about": "“HBV mutations associated with reduced susceptibility to adefovir” (priority 2002, published 2004)", "system": "rtN236T mutant HBV", "assay": "Lamivudine monotherapy in patient 0454-2506 with the rtN236T mutation after withdrawal from study 438", "assay_type": "in vivo, human", "note": "Entries after “also recorded” stand apart in the source; their conditions may differ. At least one compound was matched to its structure with a doubt left.", "data": [{"molecule": "Nc1ccn([C@@H]2CS[C@H](CO)O2)c(=O)n1", "note": "[Lamivudine, lamivudine]", "values": [{"measurement": "ALT response after switch to lamivudine", "setting": "patient 0454-2506, after 6 months", "result": "ALT normalization"}, {"measurement": "serum HBV DNA response after switch to lamivudine", "setting": "patient 0454-2506, lamivudine from week 104, after 6 months, Digene assay detection limit 1.5×10^5 copies/mL", "result": "Serum HBV DNA suppression was observed; also recorded: undetectable"}]}]}
